Test results from PMC3338798.
No constants are given. Whether binding was seen depends on the method and setting. In cells and extracts the contact can be indirect. Some results given as binding are weak or reduced against the parent protein; the word gives no strength.

By UniProt entry, the sequences of proteins in these tests, tags left out.
UniProt Q8I5I8: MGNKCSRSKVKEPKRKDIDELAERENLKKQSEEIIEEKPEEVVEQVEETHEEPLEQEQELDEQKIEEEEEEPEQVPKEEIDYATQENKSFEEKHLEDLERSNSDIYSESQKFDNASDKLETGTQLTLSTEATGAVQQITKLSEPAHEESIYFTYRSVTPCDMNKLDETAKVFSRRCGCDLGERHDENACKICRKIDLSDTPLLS
UniProt Q8I4W8: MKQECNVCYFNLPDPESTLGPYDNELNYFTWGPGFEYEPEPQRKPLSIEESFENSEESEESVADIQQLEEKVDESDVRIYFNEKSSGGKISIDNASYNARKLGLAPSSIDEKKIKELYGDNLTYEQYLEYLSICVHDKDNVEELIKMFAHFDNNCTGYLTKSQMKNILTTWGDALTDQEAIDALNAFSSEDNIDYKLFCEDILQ

Molecular target: PfGAP45-GFP (Plasmodium falciparum Glideosome Associated Protein 45 fused with Green Fluorescent Protein at its C-terminus), wild type (P. falciparum (3D7)) (UniProt Q8I5I8)
Test: co-IP; anti-GFP immunoprecipitation of GAP45-GFP from transgenic parasite lysate (lysis buffer with 1% Triton X-100, 100 mM NaCl, pH 7.5, 4°C; protein A+G sepharose); western blot with anti-MTIP antibody

## Myosin Tail Interacting Protein (PfMTIP) (from UniProt Q8I4W8 1-204)
  binding: binds
